## Primary screen of a compound library

The filed quantity is “Percent Effect” (%). How 0% and 100% were set is not recorded. Most values in the screen are low, and negative values occur. Compounds were drawn at random from those tested, without regard to their results. Two or more numbers in one place are separate tests of the same structure; such repeats can differ widely.

Mtb cholesterol medium: 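Phenotypic screen: M. tuberculosis growth, cholesterol and DPPC medium, 4 days; the read-out is not stated. Compounds at 50 µM. The record gives no direction; compounds that gave an IC50 in retests scored well above the rest, so higher reads as more growth inhibition. Of about 69,000 compounds tested this way, about 370 (0.54%) reached 50% or more in at least one test.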
Mtb glucose medium: 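Whole-cell growth test on Mycobacterium tuberculosis, read after 3 days in glucose-containing 7H9 medium; the read-out is not stated. Tested at 50 µM. Direction is inferred from retests: higher values go with more growth inhibition. Of about 69,000 compounds tested this way, about 760 (1.1%) reached 50% or more in at least one test.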

| SMILES | Mtb cholesterol medium | Mtb glucose medium |
|---|---|---|
| `CCc1nc2n(n1)CC(Nc1nc(C)cc(N(C)C)n1)CC2` (centres unmarked) | 10.82 | 21 |
| `CS(=O)(=O)c1snnc1C1CCN(Cc2ccncc2)CC1` | -16.86 | 6.868 |
| `CNC1CCCN(Cc2noc(C3CC3)n2)C1.Cl` (centres unmarked) | -4.99 | 19.42 |
| `COCCO[C@H]1CCN(C(=O)c2cccnc2)[C@H]1Cc1cnn(C)c1.O=C(O)C(F)(F)F` | -8.595 | -4.716 |
| `Cn1cnc(S(=O)(=O)NCC(C)(O)c2ccc3c(c2)OCO3)c1` (centres unmarked) | 6.055 | 17.6 and -3.264 |
| `Cc1cnn(CC2CCCCN2C(=O)c2ccnc(N(C)C)c2)c1` (centres unmarked) | -6.991 | 17.89 |
| `CC(C)(C)C(=O)NS(=O)(=O)c1ccc(F)cc1C(F)(F)F` | -20.27 | -25.19 |
| `CCn1cnnc1CCNC(=O)CCNC(=O)c1ccccc1F` | 24.89 | 0.8731 and 14.18 |
| `Cc1csc2c(=O)n(CCSc3cnn[nH]3)cnc12` | 7.937 | 0.2316 and 7.536 |
| `Cc1nn2c(-c3cnn(C)c3)nnc2s1` | -2.889 | 14.08 |
| `CN1CCc2[nH]nc(C(=O)N3CCCC4(CC3)CNC(=O)O4)c2C1` (centres unmarked) | -5.981 | -10.74 |
| `CC(C)N(C)C(=O)C1=NOC2(CCN(C(=O)c3ccnnc3)C2)C1` (centres unmarked) | 14.51 | 1.241 |
| `COC(=O)CCNC(=O)c1ccc(NC(=O)N(C)CC(C)(C)C)cc1` | -2.064 and 14.75 | 22.68 |
| `Cc1cnc(C(=O)N2CCCC(n3nc(C)nc3C)C2)cn1` (centres unmarked) | -25.51 | -10.87 |
| `COc1ccc2c(c1)OCC(CNC(=O)NC(C)(C)C)C2` (centres unmarked) | -58.85 | 18.9 |
| `Cc1ncsc1C(=O)N(C)Cc1cccnc1` | -25.29 | -44.06 |
| `CCn1c(CN(C)C)nnc1C1CCN(Cc2cnc(C)nc2)CC1` | 8.644 and -8.354 | -3.085 |
| `Cc1ccccc1C1(CNC(=O)N2CCC(CC(N)=O)CC2)CC1` | -12.82 | -0.7717 |
| `Cc1ccc(Cl)cc1-n1nnnc1C1(N2CCCC2)CCCCC1` | 15.25 | 2.137 and 33.14 |
| `COc1c(C)cnc(CN2CCn3c(C)nnc3C2)c1C` | 0.9247 | 7.272 |
| `CCOCCCNc1cc(C)nn2cnnc12` | -19.59 | -25.52 |
| `Cc1nc(CNC(=O)C(C)Oc2ccccc2F)no1` (centres unmarked) | -5.388 and -6.065 | -9.017 |
| `[H][C@]12CC[C@]([H])(CN(C3CCOCC3)C1)N(Cc1cscn1)C2=O` | -19.8 | 6.295 |
| `CCC(C)C(=O)NCc1cccc(OCCN(C)C2CCOCC2)c1` (centres unmarked) | -6.028 | -14.82 and -5.997 |
| `CC(C)c1n[nH]c(C2CN(C(=O)c3cc(C(N)=O)cs3)CCO2)n1` (centres unmarked) | -9.057 | -3.422 |
| `O=C(Cc1csc(N2CCNC2=O)n1)NC1(c2ccccc2)CCC1` | -11.69 | -34.28 |
| `CC(C)(CCS(C)(=O)=O)CNc1ccc2ccc(F)cc2n1` | -25.6 | 35.17 |
| `Cc1ccc(OCCC(=O)N(C)CC(=O)Nc2cc(C)on2)c(C)c1` | 0.9737 and 0.08514 | -7.941 |
| `O=C(NCC1CCOC1)Nc1ccc(Oc2cccc(F)c2)nc1` (centres unmarked) | -16.34 | -5.41 |
| `O=C(c1cncc(NCC2COc3ccccc3C2)n1)N1CCOCC1` (centres unmarked) | -11.72 | -15.33 |
| `CN(C)Cc1cnc(C2CCN(C(=O)c3ccccc3F)C2)[nH]1.Cl` (centres unmarked) | -5.425 and 0.9063 | -19.25 |
| `CCCNC(=O)CNc1cc(C(=O)NCC(F)(F)F)cc(F)c1C` | -10.78 and 5.1 | -7.13 |
| `Cc1ccnc(C2CN(c3ncccn3)C2)n1` | -13.68 and -7.992 | -9.555 |
| `OC1(CNCCc2csc(-c3ccncc3)n2)CCCNC1` (centres unmarked) | -11.87 | 3.146 |
| `Cc1ccc(-c2nnc(CNCCn3cccn3)o2)cc1` | 17.25 | -0.1528 |
| `O=C(O)C(F)(F)F.O=C(c1cnccn1)N1CCOCC2(CCN(C3CCOCC3)C2)C1` (centres unmarked) | -7.684 | -10.31 |
| `Cn1cc(N2CCCC(Nc3ccc4c(c3)CCCO4)C2=O)cn1` (centres unmarked) | 7.748 | -1.344 |
| `Cc1cc(C)n(C2CCCN(C(=O)c3cccc(F)c3F)C2)n1` (centres unmarked) | -24.55 | -25.74 |
| `Cc1csc(C(=O)NCCN2CCC(c3cccs3)CC2)c1` | -15.98 | -3.474 |
| `COc1cccc(C2(C(=O)NC3CCc4nccn4C3)CCCC2)c1` (centres unmarked) | -5.113 and -0.6307 | -16.97 |
| `Cc1ccc(OCc2occc2C(=O)N2CCCCC(N)C2)cc1` (centres unmarked) | -9.283 | 2.324 |
| `CC1CCc2nc(O)c(C(=O)NCCc3cccs3)cc2C1` (centres unmarked) | 5.144 and -4.629 | -15.16 |
| `CC(NC(=O)NCCCn1ccnc1)c1nncn1C` (centres unmarked) | 2.533 | 15.79 |
| `CSC1(CNC(=O)NC(C)c2ccc(F)c(F)c2)CCOCC1` (centres unmarked) | -5.983 | -21.81 |
| `[H][C@]12CC[C@]([H])(CN(CC(=O)N(C)C)C1)N(Cc1ccccc1C#N)C2` | -21.54 | -16.94 |
| `Cc1c(CNCCCOc2cccnc2)c2ccccc2n1CC(N)=O` | 14.27 | -13.26 and 2.076 |
| `O=C1CC(CNc2cncc(Cl)n2)c2ccccc2N1` (centres unmarked) | 3.364 | 9.903 |
| `CCn1cc(Cl)c(C(=O)NCc2cnn(C)c2)n1` | 1.919 | 7.116 |
| `CSc1ccc(CNC(c2ccccc2)c2nccn2C)cc1` (centres unmarked) | 13.22 | 15.12 |
| `CCc1ncc(C(=O)NCCN(C)S(C)(=O)=O)cn1` | 3.726 | -12.08 |
| `CC(C)N(C(=O)CCc1ccco1)C1CCOCC1` | -14.2 | -27.37 |
| `Cc1ccc(C(=O)N2CCC(c3noc(-c4cccnc4)n3)CC2)cn1` | -8.054 and -4.7 | -33.26 |
| `OC1(CN2CCCC2)CCCN(Cc2ccc(F)cc2Cl)C1` (centres unmarked) | 12.02 | 58.85 |
| `CC(O)CN1CCN(C(=O)c2cnn(-c3ccc(Cl)cc3)c2)CC1` (centres unmarked) | 6.506 | 7.798 |
| `Cc1nc(CN2CCCC3(CCN(c4cnn(C)c4)C3=O)C2)cs1.O=C(O)C(F)(F)F` (centres unmarked) | -8.964 | 12.79 |
| `[H][C@@]12CC[C@H](Oc3cccc(F)c3)[C@]1([H])CN(C(=O)c1ncccn1)C2` | -3.977 | 14.65 |
| `O=C(Nc1ccccc1OC1CCOC1)c1cc[nH]n1` (centres unmarked) | -17.67 | -30.56 |

The last 4 entries again:

{"smiles": "CC(O)CN1CCN(C(=O)c2cnn(-c3ccc(Cl)cc3)c2)CC1", "stereo": "centres unmarked", "Mtb cholesterol medium": 6.506, "Mtb glucose medium": 7.798}
{"smiles": "Cc1nc(CN2CCCC3(CCN(c4cnn(C)c4)C3=O)C2)cs1.O=C(O)C(F)(F)F", "stereo": "centres unmarked", "Mtb cholesterol medium": -8.964, "Mtb glucose medium": 12.79}
{"smiles": "[H][C@@]12CC[C@H](Oc3cccc(F)c3)[C@]1([H])CN(C(=O)c1ncccn1)C2", "Mtb cholesterol medium": -3.977, "Mtb glucose medium": 14.65}
{"smiles": "O=C(Nc1ccccc1OC1CCOC1)c1cc[nH]n1", "stereo": "centres unmarked", "Mtb cholesterol medium": -17.67, "Mtb glucose medium": -30.56}

The values are deposited in ChEMBL (CHEMBL3988442, “University of Dundee, Small-Polar-MMV Screening Library” (2021)).